# According to PubChem BioAssay AID540256 (National Center for Advancing Translational Sciences (NCATS), 2011):
# In all, about 300,000 compounds went through this assay and about 3,700 (1.2%) were called active. Only results without a clear call are listed here; the source files them as inconclusive. Calls follow the shape of the full dose curve; tested in HEK293 cells.
# Test: qHTS for Inhibitors of binding or entry into cells for Lassa Virus; also: nearly all actives have a fitted effect of over 50% in size
# Details: Lassa virus pseudotype entry inhibition, cell reporter
# Potency is read from the fitted curve at half-maximal effect.
row,Compound,Potency
1,CCCCOc1ccc(C(=O)NCC2(N3CCOCC3)CCCCC2)cc1,inconclusive: 0.708 µM
2,COc1cc(C(=O)NCC2(N(C)C)CCCCC2)ccc1OC(F)F,inconclusive: 12.6 µM
3,O=C(NCC1(N2CCCCC2)CCCCC1)c1cccs1,inconclusive: 3.16 µM
4,Cc1cc(C)cc(N(C(=O)c2ccccc2)C2CCN(C(=O)OC(C)(C)C)CC2)c1,inconclusive: 15.8 µM
5,COc1ccc(Cl)cc1C(=O)NCC1(N2CCOCC2)CCCCC1,inconclusive: 0.562 µM
6,CN(C)C1(CNC(=O)c2ccc(C(C)(C)C)cc2)CCCCC1,inconclusive: 14.1 µM
7,Cc1ccc(NC2(C#N)CCN(Cc3ccccc3)CC2)cc1,inconclusive: 0.316 µM
8,CC(C)(C)OC(=O)N1CCC(N(C(=O)c2ccccc2)c2ccc(Cl)cc2)CC1,inconclusive: 7.08 µM
9,CCCN1CCC(Nc2cc(OC)cc(OC)c2)CC1,inconclusive: 35.5 µM
